At least one read-out could not be matched to a standard name with certainty.
Assay: Pharmacokinetics of pyrrolomycin 4 in mice (LC-MS/MS of plasma)
Settings: oral administration

## O=C(c1cc(Br)c(F)[nH]1)c1cc(Cl)cc(Cl)c1O [Compound 4]
  time of maximum plasma concentration (Cmax): 0.25 h
